# Measurements from patent EP4737450A1 (Longwood Pharmaceuticals (Hangzhou) Co., Ltd, priority 2023, dated 2025).
# Amino acid sequences for entries named in this document (tags omitted). Residues count along the entry.
# UniProt P03952, 391-638 limits assumed: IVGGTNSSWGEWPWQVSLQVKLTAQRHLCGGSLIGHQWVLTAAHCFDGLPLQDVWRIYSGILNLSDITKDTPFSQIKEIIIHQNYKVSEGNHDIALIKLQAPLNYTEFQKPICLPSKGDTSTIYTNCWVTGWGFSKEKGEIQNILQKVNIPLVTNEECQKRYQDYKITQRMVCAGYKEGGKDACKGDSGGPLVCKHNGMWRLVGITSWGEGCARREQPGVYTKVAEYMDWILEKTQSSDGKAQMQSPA
# UniProt P03952, 20-390 partner limits assumed: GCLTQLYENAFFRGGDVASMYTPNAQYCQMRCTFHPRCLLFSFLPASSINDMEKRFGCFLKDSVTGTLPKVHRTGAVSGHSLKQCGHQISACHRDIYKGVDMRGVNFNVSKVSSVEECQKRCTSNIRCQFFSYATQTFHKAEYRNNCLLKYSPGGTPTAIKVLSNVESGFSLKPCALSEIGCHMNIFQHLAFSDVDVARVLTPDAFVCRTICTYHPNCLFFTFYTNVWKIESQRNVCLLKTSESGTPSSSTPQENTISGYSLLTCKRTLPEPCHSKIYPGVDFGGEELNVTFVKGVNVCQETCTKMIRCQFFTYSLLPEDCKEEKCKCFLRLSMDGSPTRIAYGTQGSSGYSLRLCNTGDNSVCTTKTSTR
# Molecular target: plasma kallikrein (PKa) (Homo sapiens, UniProt P03952)
# Assay: Inhibitory activity against plasma kallikrein in vitro (fluorescence intensity enzyme assay, Pro-Phe-Arg-AMC substrate)
# Type: biochemical
# Settings: read-out: PKa IC50
smiles,measurement,value
COCc1nn(Cc2ccc(Oc3ccccc3)cc2)cc1C(=O)NCc1cn2c(n1)CNCC2,IC50,> 1000 nM

# The match of structure and compound is tentative.
